Laboratory results: publication PMC7305319, “Talin dissociates from RIAM and associates to vinculin sequentially in response to the actomyosin force” (Nature Communications, 2020)
No constants are given. Whether binding was seen depends on the method and setting.

By UniProt entry, the sequences of proteins in these tests, tags left out. Residues count along the entry.
UniProt Q9Y490, residues 196-405: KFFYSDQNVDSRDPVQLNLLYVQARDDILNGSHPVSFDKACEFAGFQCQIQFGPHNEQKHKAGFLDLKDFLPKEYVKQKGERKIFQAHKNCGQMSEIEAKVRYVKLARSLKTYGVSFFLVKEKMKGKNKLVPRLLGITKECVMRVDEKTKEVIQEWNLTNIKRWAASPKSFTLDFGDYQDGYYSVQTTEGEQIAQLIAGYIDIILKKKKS

Target: talin F2–F3 (talin 196–405) (human) (UniProt Q9Y490)
Assay: fluorescence microscopy of protein-coated micropatterns; talin construct (1 µM during coating) on 5 µm disk micropatterns, 0–1 µM mCherry-RIAM 1-306 in solution, no actomyosin; Kd estimated as the RIAM concentration at half saturation; both purified

B1: mCherry-RIAM 1-306 (domain or fragment, mouse, UniProt Q8R5A3 1-306, looked up)
chain: MGESNEDIDQMFSTLLGEMDLLTQSLGVDTLPPPDPNPPREEFNYTVGFKDLNESLNALEDQDLDALMADLVADISEAEQRTIQAQKESSQNQDRFALLRASDGQGTASGGYGASAAAIDVSHHEEALPPPPVEPMLDLLPPPPPPPPPELLSKEEEEAKAKADKIKLALEKLKEAKVKKLVVKVHMDDSSTKSLMVDERQLARDVLDNLFEKTHCDCNVDWCLYEIYPELQIERVFEDHENVVEVLSDWTRDTENKVLFLEKEERYAVFKNPQNFYLDNKGKKENKETNEKMNAKNKEYLLEESF
notes: Cloned in a homemade pGEX-6P2-mCherry plasmid; source: E. coli BL21 DE3, purified (glutathione-Sepharose, PreScission cleavage, Ni-NTA); not shown: GST, N-terminal, cleaved
  binding: no binding
